{"sequences": {"note": "Sequences of proteins named here, by UniProt entry; tags and fusion partners are left off.", "UniProt Q8NER1, whole entry, looked up": "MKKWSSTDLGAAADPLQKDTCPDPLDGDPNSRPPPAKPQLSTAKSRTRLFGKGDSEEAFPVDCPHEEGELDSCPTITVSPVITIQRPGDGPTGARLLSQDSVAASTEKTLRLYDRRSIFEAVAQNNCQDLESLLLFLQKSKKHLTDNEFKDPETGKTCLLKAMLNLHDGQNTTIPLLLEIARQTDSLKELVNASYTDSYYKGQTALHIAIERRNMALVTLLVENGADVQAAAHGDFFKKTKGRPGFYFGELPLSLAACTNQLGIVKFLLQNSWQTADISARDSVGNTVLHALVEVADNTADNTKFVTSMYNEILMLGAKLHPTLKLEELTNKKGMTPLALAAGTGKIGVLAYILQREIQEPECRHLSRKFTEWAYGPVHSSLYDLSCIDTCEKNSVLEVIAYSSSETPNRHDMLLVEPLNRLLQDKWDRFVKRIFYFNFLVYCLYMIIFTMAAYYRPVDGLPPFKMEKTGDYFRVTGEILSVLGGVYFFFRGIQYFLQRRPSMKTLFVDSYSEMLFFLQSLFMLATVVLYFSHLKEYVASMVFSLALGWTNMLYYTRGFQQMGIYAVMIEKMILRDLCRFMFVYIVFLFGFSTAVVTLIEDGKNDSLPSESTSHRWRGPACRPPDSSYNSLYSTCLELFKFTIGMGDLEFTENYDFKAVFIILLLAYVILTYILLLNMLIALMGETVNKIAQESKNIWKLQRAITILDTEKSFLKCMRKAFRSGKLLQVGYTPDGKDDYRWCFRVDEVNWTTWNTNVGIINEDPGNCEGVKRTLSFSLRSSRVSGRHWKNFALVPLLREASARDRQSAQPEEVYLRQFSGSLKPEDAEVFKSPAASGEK"}, "source": "PubChem BioAssay AID540275", "about": "(National Center for Advancing Translational Sciences (NCATS), 2011)", "note": "About 620 (0.19%) of roughly 320,000 compounds were called active. The shares of active, inactive and inconclusive entries below differ from those in the screen. No stated cut-off is given here; in the data, active means activation above about 80%; inconclusive means between about 30% and that limit; inactive means weaker than that.", "data": [{"target": "Transient receptor potential cation channel subfamily V member 1 (Homo sapiens) (UniProt Q8NER1)", "assay": "HTS Assay for Compounds that Act as Agonists of the Vanilloid Receptor 1; further: 0% is about no effect", "conditions": "TRPV1-expressing cells, Fluo-8 calcium influx, agonist mode; at 8.33 µM, hits give high values", "method_in_brief": "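Cells expressing TRPV1 were dye-loaded with Fluo-8 and read kinetically: 10 s baseline, 3 min after compound (agonist portion), then 2 min after EC20 capsaicin (allosteric enhancer portion). Calcium-bound dye fluorescence at 480/520 nm.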", "values": [{"molecule": "O=C(C1=C[C@@H](c2ccc(Br)cc2)C[C@@H](OCc2ccc(CO)cc2)O1)N1CCN(Cc2ccc3c(c2)OCO3)CC1", "activation": "inconclusive: 64.5%"}, {"molecule": "Oc1ccccc1/C=N/Nc1nccnc1Cl", "activation": "inconclusive: 30.2%"}, {"molecule": "O=C(Cc1ccccc1F)Nc1nc(-c2ccc(F)cc2)cs1", "activation": "inconclusive: 72.1%"}, {"molecule": "COc1ccc(-n2nc(C(=O)NCC(=O)NCc3ccc(F)cc3)c3ccccc3c2=O)cc1", "activation": "inactive: 3.35%"}, {"molecule": "CCN1CCN(C(=O)c2ccc3c(=O)n(C4CCCC4)c(=S)[nH]c3c2)CC1", "activation": "inactive: -19.4%"}, {"molecule": "O=C(/C=C/c1cccs1)N1CCN(c2ccc(O)cc2)CC1", "activation": "inconclusive: 30.7%"}, {"molecule": "O=S(Cc1ccccc1)CC(O)(c1ccc(Cl)cc1)c1ccc(Cl)cc1", "note": "(stereo not given)", "activation": "inconclusive: 43.1%"}, {"molecule": "COc1ccc2[nH]c(=O)c(CN(Cc3ccccc3)C(=S)NCC3CCCO3)cc2c1", "note": "(stereo not given)", "activation": "inactive: 13.9%"}, {"molecule": "CC(=O)Cc1nsc(NC(=O)c2ccc(-c3cc(Cl)ccc3Cl)o2)n1", "activation": "inconclusive: 33.8%"}, {"molecule": "COc1ccccc1CCn1cnc2c3cc(C)ccc3n(C)c2c1=O", "activation": "inconclusive: 34%"}, {"molecule": "CCN(Cc1ccccc1)C(=O)CSc1nc(C)cc(C)c1C#N", "activation": "inactive: 17.3%"}, {"molecule": "Cc1cc(Br)ccc1NC(=O)c1sc2ncnc(N3CCN(c4ccccn4)CC3)c2c1C", "activation": "inactive: 5.21%"}, {"molecule": "O=C(NC(=S)Nc1ccccc1)c1ccc(-c2ccccc2)cc1", "activation": "inactive: -0.22%"}, {"molecule": "CC(C)CN(CC(C)C)C(=O)c1cc2c(=O)n3ccccc3nc2s1", "activation": "inconclusive: 40.8%"}, {"molecule": "NC(=O)[C@H](Cc1cc2ccccc2s1)NC(=O)[C@@H]1CC2(CC(c3cccc(NC(=O)[C@@H]4CCC(=O)N4)c3)=NO2)CN1C(=O)/C=C/c1c(F)cccc1Cl", "note": "(stereo not given in full)", "activation": "inactive: -2.01%"}, {"molecule": "NC(=O)c1ccccc1NC(=O)CC12CC3CC(CC(C3)C1)C2", "activation": "inconclusive: 43%"}, {"molecule": "COc1ccc(-c2ccc(-c3noc(C)n3)c(OC)n2)cc1", "activation": "inconclusive: 36.3%"}, {"molecule": "O=C(Nc1ccccc1)Nc1ccc(Cl)c(S(=O)(=O)N2CCOCC2)c1", "activation": "inconclusive: 51.6%"}, {"molecule": "Cc1cc(C)n(-c2ccc(Cl)c(C(=O)Nc3ccc(OC(F)(F)F)cc3)n2)n1", "activation": "inactive: 0.647%"}, {"molecule": "O=C(C[C@H]1C(=O)N(Cc2ccccc2)C[C@@H]1Cc1ccccc1)Nc1ccccc1", "activation": "inconclusive: 33.5%"}, {"molecule": "CNC[C@@H](Cc1ccccc1)NC[C@@H](CC1CCCCC1)NCCCc1ccccc1", "activation": "inactive: 0.171%"}, {"molecule": "COc1ccc(-n2cc(-c3ccccc3)c3c(=O)[nH]cnc32)cc1", "activation": "inconclusive: 30.9%"}, {"molecule": "O=C(Cc1ccccc1[N+](=O)[O-])NCc1ccc(Cl)cc1", "activation": "inconclusive: 50.6%"}, {"molecule": "Cc1nn(-c2ccccc2)c(C)c1C(=O)Nc1nnc(-c2ccco2)o1", "activation": "inactive: -2.76%"}, {"molecule": "CCN(CC)c1ccc(C(=O)N/N=C/c2ccccc2OC(F)F)cc1", "activation": "inactive: 5.45%"}, {"molecule": "Cc1ccccc1NS(=O)(=O)c1ccc2[nH]cc(C(=O)NCCc3ccccc3)c(=O)c2c1", "activation": "inactive: 0.0622%"}, {"molecule": "COc1ccc(/C=N/NC(=O)CCc2ccccc2)cc1O", "activation": "inconclusive: 46.6%"}, {"molecule": "CCCCS/C(N)=N/N=C/c1cc(C)ccc1O", "activation": "inactive: 4.57%"}, {"molecule": "CN(c1ccccc1)S(=O)(=O)c1cc(C(=O)c2nccn2C)ccc1Cl", "activation": "inconclusive: 31.3%"}, {"molecule": "CCN1C(=O)c2ccccc2S(=O)(=O)c2ccc(C(=O)NC(C)C)cc21", "activation": "inactive: -3.41%"}, {"molecule": "Cc1cccn2c(=O)nc(SCC(=O)N3CCCC3)nc12", "activation": "inactive: 1.43%"}, {"molecule": "COCc1ccccc1C1=CC(=O)C[C@H](c2ccc(F)cc2)C1", "activation": "inconclusive: 31.8%"}, {"molecule": "Cc1ccc(N(C)C(=O)N2CCN(S(=O)(=O)c3ccc4ccccc4c3)CC2)cc1", "activation": "inconclusive: 38.1%"}, {"molecule": "CC(C)(C)C1CCc2c(sc3nc(SCC(N)=O)nc(N)c23)C1", "note": "(stereo not given)", "activation": "inconclusive: 64.7%"}, {"molecule": "CCN(CC)C(=S)SCC(=O)NC12CC3CC(CC(C3)C1)C2", "activation": "inconclusive: 42%"}, {"molecule": "NNC(=O)c1sc2cc(C(F)(F)F)cnc2c1-c1cccs1", "activation": "inactive: -1.39%"}, {"molecule": "C[C@@H](CSc1ccccc1)CN1CC[C@H](C(C)(C)C)CCC1=O", "activation": "inconclusive: 44.6%"}, {"molecule": "CCOc1ccc(S(=O)(=O)N2CCOCC2)cc1NC(=O)CSCc1ccc(C)cc1", "activation": "inconclusive: 42.1%"}, {"molecule": "CC(C)(CCC(=S)N1CCOCC1)C1CCCCC1", "activation": "inactive: 16.1%"}, {"molecule": "O=C(NCCNC(=O)c1cc(OCC(F)(F)F)ccc1OCC(F)(F)F)Nc1cccc(C(F)(F)F)c1", "activation": "inconclusive: 60%"}, {"molecule": "CC(Oc1ccc(Cl)cc1)C(=O)Nc1cccc(S(=O)(=O)N2CCOCC2)c1", "note": "(stereo not given)", "activation": "inconclusive: 31%"}, {"molecule": "CCN(C(C)=O)c1nnc(CSc2nc3ccccc3s2)s1", "activation": "inconclusive: 34.1%"}, {"molecule": "Cc1ccc2nc(-c3cccnc3)c(NC3CCCCC3)n2c1", "activation": "inconclusive: 56%"}, {"molecule": "CCCOc1c(OC)cccc1C1CC(=O)Nc2cc3c(cc21)OCCO3", "note": "(stereo not given)", "activation": "inconclusive: 40.5%"}, {"molecule": "O=C(NCCC1=CCCCC1)C(c1ccccc1)c1ccccc1", "activation": "inconclusive: 34.8%"}, {"molecule": "COc1ccc(CC(=O)Nc2cc(C)ccc2O)cc1OC", "activation": "inconclusive: 73%"}, {"molecule": "C=CCNC(=O)COc1ccc(S(=O)(=O)N2CCCC2)cc1", "activation": "inactive: 0.717%"}, {"molecule": "CC1CC(C)(C)N(C(=O)CN2CCN(C)CC2)c2ccccc21", "note": "(stereo not given)", "activation": "inactive: -2.35%"}, {"molecule": "CCOC(=O)C1=C(CC)Nc2ccccc2N=C1NC(=O)Nc1ccc(Cl)c(Cl)c1", "activation": "inactive: 4.75%"}, {"molecule": "Cc1nc(N2CCN(C(=O)c3ccco3)CC2)nc2c1C(=O)CC(C)C2", "note": "(stereo not given)", "activation": "inconclusive: 31.6%"}, {"molecule": "CCOC(=O)CCSc1nc(N2CCOCC2)c2c(c1C#N)CC(C)(C)OC2", "activation": "inconclusive: 61.3%"}, {"molecule": "N#C/C(=C\\c1c[nH]c2ccccc12)C(=O)Nc1ncc(Cc2ccc(Cl)cc2Cl)s1", "activation": "inconclusive: 30.8%"}, {"molecule": "CCOC(=O)c1cn(Cc2ccccc2)c2cc(C)nn2c1=O", "activation": "inactive: 3.06%"}, {"molecule": "COc1cccc(CNC(=O)CCC2CCCN(c3cc(C)nc(N(C)C)n3)C2)c1", "note": "(stereo not given)", "activation": "inconclusive: 31.4%"}, {"molecule": "Cc1ccc(NC(=O)c2ccc(OCc3c(C)noc3C)cc2)c(C)c1", "activation": "inconclusive: 46.1%"}]}]}
